These are yes or no findings as the source states them, for the method shown. In cells and extracts the contact can be indirect. These calls come from enrichment with a bait or labelling near it, and not all partners need be listed.
biological target: T1, RBM42 (RNA binding motif protein 42), endogenous (human (endogenous in Panc-1)) (UniProt Q9BTD8); test: affinity purification with mass spectrometry
T1 sequence: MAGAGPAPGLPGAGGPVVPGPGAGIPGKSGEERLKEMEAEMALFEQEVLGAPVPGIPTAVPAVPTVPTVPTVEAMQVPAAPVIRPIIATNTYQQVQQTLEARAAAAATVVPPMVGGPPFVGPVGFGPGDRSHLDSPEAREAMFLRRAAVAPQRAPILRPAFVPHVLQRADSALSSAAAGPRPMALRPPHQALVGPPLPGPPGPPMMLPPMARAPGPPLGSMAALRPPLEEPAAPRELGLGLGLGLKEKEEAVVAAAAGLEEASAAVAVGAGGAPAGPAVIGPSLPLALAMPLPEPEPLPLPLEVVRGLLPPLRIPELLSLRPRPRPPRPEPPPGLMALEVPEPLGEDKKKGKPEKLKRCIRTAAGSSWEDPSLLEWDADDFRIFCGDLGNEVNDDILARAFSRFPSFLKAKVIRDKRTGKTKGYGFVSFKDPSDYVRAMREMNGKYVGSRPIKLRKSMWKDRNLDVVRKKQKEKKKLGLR

Protein sequences, listed by entry. Tags and fused reporters are not part of them.
UniProt P05198: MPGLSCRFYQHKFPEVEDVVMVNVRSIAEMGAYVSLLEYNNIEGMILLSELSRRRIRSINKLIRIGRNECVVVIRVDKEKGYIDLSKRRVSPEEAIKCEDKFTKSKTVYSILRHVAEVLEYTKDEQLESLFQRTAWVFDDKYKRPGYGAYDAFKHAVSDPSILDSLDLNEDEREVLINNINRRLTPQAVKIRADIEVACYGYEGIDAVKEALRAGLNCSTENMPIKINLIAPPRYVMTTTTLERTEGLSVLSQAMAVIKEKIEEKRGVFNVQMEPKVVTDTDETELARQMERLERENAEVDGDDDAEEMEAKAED
UniProt P41091: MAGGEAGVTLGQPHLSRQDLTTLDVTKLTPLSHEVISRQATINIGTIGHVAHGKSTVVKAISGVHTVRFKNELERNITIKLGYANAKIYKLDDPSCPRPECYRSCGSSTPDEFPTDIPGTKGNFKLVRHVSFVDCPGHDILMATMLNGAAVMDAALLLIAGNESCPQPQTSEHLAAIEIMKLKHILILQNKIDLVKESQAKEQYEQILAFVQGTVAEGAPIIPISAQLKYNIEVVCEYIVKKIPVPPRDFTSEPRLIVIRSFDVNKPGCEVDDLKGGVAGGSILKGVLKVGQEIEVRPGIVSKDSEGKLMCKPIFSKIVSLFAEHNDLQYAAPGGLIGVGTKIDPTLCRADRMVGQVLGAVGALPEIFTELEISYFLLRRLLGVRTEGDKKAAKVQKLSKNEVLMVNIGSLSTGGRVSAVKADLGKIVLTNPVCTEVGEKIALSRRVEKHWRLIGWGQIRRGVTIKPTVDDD
UniProt P20042: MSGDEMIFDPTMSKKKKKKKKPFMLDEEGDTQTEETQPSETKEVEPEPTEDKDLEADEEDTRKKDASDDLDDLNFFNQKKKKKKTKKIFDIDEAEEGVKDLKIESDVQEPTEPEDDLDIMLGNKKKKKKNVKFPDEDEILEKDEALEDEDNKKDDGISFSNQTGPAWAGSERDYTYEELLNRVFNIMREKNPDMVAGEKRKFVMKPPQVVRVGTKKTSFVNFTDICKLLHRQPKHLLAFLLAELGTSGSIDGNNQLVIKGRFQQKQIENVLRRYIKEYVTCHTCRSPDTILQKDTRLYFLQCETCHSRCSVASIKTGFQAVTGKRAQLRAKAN

binding, binds:
eIF2α (from UniProt P05198 1-315)
eIF2γ (from UniProt P41091 1-472)
eIF2β (from UniProt P20042 1-333)

Reference: doi:10.1101/2024.10.10.617637
